This note sets out measurements from patent US20110251130A1.

By UniProt entry, the sequences of proteins in these tests, tags left out.
UniProt P35222: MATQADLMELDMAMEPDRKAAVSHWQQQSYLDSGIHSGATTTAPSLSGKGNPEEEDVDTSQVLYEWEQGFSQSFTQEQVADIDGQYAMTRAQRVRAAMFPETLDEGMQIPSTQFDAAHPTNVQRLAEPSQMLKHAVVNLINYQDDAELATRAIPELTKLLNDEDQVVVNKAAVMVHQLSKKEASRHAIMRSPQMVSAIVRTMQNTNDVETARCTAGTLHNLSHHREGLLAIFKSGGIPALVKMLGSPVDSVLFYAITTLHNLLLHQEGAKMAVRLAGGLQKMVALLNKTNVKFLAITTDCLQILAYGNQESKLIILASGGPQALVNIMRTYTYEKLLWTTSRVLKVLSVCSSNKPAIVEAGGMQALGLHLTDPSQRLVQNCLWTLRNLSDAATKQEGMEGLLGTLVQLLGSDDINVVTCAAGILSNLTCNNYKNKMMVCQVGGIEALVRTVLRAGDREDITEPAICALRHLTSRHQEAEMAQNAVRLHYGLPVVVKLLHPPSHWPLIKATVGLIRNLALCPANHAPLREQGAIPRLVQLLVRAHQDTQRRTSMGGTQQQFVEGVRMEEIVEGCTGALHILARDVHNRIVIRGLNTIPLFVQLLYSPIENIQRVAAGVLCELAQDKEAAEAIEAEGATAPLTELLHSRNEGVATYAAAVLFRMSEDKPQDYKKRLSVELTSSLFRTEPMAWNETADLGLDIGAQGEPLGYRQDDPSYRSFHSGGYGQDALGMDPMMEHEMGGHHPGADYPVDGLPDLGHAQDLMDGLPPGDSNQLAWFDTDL

Assay [1] has as its target V5-tagged β-catenin (UniProt P35222). Kind of assay: co-immunoprecipitation in HEK293 cells; IP anti-V5, detection anti-FLAG.
Assay [2] shares this target. As to the kind of experiment: co-immunoprecipitation from lysates of cotransfected cells (FLAG-tagged WTX and β-catenin).

Results are given in words; binding and its absence hold for the method and conditions named. In cells and extracts the contact can be indirect. Some binding calls cover weakened binding; strength is not graded here. Where a sequence is shown, tags or fusion partners need not be part of it.

B1: FLAG-tagged WTXS2 (shorter splice isoform of human WTX lacking residues 50-327) (protein, not shown: small tags and cut ends)
chain: METQKDEAAQAKGAAASGSTREQTAEKGAKNKAAEATEGPTSEPSSSGPGCGDIIAEQDMDSMTDSMASGGQRANRDGTKRSSCLVTYQGGGEEMALPDDDDEEEEEEEEVELEEEEEEVKEEEEDDDLEYLWETAQMYPRPNMNLGYHPTTSPGHHGYMLLDPVRSYPGLAPGELLTPQSDQQESAPNSDEGYYDSTTPGFEDDSGEALGLVRRDCLPRDSYSGDALYEFYEPDDSLENSPPGDDCLYDLHGRSSEMFDPFLNFEPFLSSRPPGAMETEEERLVTIQKQLLYWELRREQLEAQEARAREAHAREAHAREAYTREAYGREAYAREAHTWEAHGREARTREAQAREVRCRETQVRETQARQEKPVLEYQMRPLGPSVMGLAAGVSGTSQISHRGITSAFPTTASSEPDWRDFRPLEKRYEGTCSKKDQSTCLMQLFQSDAMFEPDMQEANFGGSPRRAYPTYSPPEDPEEEEVEKEGNATVSFSQALVEFTSNGNLFSSMSCSSDSDSSFTQNLPELPPMVTFDIADVERDGEGKCEENPEFHNDEDLAASLEAFELGYYHKHAFNNYHSRFYQGLPWGVSSLPRYLGLPGLHPRPPPAAMALNRRSRSLDTAETLEMELSNSHLVQGYLESDELQAQQEDSDEEDEEEEEGEWSRDSPLSLYTEPPGAYDWPAWAPCPLPVGPGPAWISPNQLDRPSSQSPYRQATCCIPPMTMSISLSVPESRAPGESGPQLARPSHLHLPMGPCYNLQPQASQSMRARPRDVLLPVDEPSCSSSSGGFSPSPLPQAKPVGITHGIPQLPRVRPEHPQPQPTHYGPSSLDLSKERAEQGASLATSYSSTAMNGNLAK
Turning to B1, the binding result in assay [1] and in assay [2] was “binds” in each case.

B2: FLAG-tagged WTXS1 (full-length wild type human WTX isoform) (protein, not shown: small tags and cut ends)
chain: METQKDEAAQAKGAAASGSTREQTAEKGAKNKAAEATEGPTSEPSSSGPGRLKKTAMKLFGGKKGICTLPSFFGGGRSKGSGKGSSKKGLSKSKTHDGLSEAAHGPEDVVSEGTGFSLPLPELPCQFPSSQSAHGALETGSRCKTSVAGATEKAVAEKFPSMPKPKKGLKGFFSSIRRHRKSKVTGAEQSEPGAKGPERVRARPHEHVSSAPQVPCFEETFQAPRKENANPQDAPGPKVSPTPEPSPPATEKMACKDPEKPMEACASAHVQPKPAPEASSLEEPHSPETGEKVVAGEVNPPNGPVGDPLSLLFGDVTSLKSFDSLTGCGDIIAEQDMDSMTDSMASGGQRANRDGTKRSSCLVTYQGGGEEMALPDDDDEEEEEEEEVELEEEEEEVKEEEEDDDLEYLWETAQMYPRPNMNLGYHPTTSPGHHGYMLLDPVRSYPGLAPGELLTPQSDQQESAPNSDEGYYDSTTPGFEDDSGEALGLVRRDCLPRDSYSGDALYEFYEPDDSLENSPPGDDCLYDLHGRSSEMFDPFLNFEPFLSSRPPGAMETEEERLVTIQKQLLYWELRREQLEAQEARAREAHAREAHAREAYTREAYGREAYAREAHTWEAHGREARTREAQAREVRCRETQVRETQARQEKPVLEYQMRPLGPSVMGLAAGVSGTSQISHRGITSAFPTTASSEPDWRDFRPLEKRYEGTCSKKDQSTCLMQLFQSDAMFEPDMQEANFGGSPRRAYPTYSPPEDPEEEEVEKEGNATVSFSQALVEFTSNGNLFSSMSCSSDSDSSFTQNLPELPPMVTFDIADVERDGEGKCEENPEFHNDEDLAASLEAFELGYYHKHAFNNYHSRFYQGLPWGVSSLPRYLGLPGLHPRPPPAAMALNRRSRSLDTAETLEMELSNSHLVQGYLESDELQAQQEDSDEEDEEEEEGEWSRDSPLSLYTEPPGAYDWPAWAPCPLPVGPGPAWISPNQLDRPSSQSPYRQATCCIPPMTMSISLSVPESRAPGESGPQLARPSHLHLPMGPCYNLQPQASQSMRARPRDVLLPVDEPSCSSSSGGFSPSPLPQAKPVGITHGIPQLPRVRPEHPQPQPTHYGPSSLDLSKERAEQGASLATSYSSTAMNGNLAK
For the molecule B2, the binding result in assay [1] and in assay [2] was “binds” in each case.
